{"source": "patent US9913838B2", "about": "“Methods of treating cancer using compositions comprising perillyl alcohol derivative” (NEONC TECHNOLOGIES INC., priority 2010, dated 2018)", "test_system": "D3H2LN cells implanted into the brains", "experiment": "Intracranial breast cancer tumor model in nude mice", "assay_type": "in vivo", "details": "25 mg/kg once daily for 10 days; in words", "text": "In FIG. 27A, all surviving animals were imaged again on days 21, 28, and 36. […] Arrow labeled Rx indicates the time period of treatment.\nAll animal protocols were approved by the Institutional Animal Care and Use Committee (IACUC) of University of Southern California, and all rules and regulations were followed during experimentation on animals. Athymic mice (Harlan, Inc., Indianapolis, Ind.) were implanted intracranially with 2×10^5 cells. A subline of MDA-MB-231 cells called D3H2LN was used, which was transfected with the firefly luciferase gene and had been selected for aggressive growth and metastasis in vivo. Ten days after intracranial implantation, efficient tumor take was confirmed in all animals via non-invasive whole-body bioluminescent imaging. For this purpose, mice were intravenously injected with 50 mg/kg D-Luciferin (Perkin Elmer, Waltham, Mass.) and imaged using the Xenogen IVIS-200 Imaging System (Caliper/Perkin Elmer). Images were analyzed by region-of-interest (ROI) analysis using the Living Image software package (Caliper/Perkin Elmer) to quantitate light output (radiance, i.e., photons per second per square centimeter per steradian).\nGroup 1 was the control group that received vehicle only (45% glycerol, 45% ethanol, 10% DMSO) via subcutaneous injection. Group 2 was the experimental group that received 25 mg/kg TMZ-POH via subcutaneous (s.c.) injection. […]", "note": "At least one structure is not confirmed: it was looked up by name or label, or the drawing left a doubt."}
{"compound": "Cn1nnc2c(C(N)=O)ncn2c1=O", "note": "[TMZ, temozolomide, reference compound]", "values": [{"measurement": "status of animals by day 36", "result": "had succumbed to disease"}]}
